# Experimental data published in the supplement of paper PMC12819154, “High-throughput peptide-centric local stability assay extends protein–ligand identification to membrane proteins, tissues and bacteria” (Nature Structural & Molecular Biology, 2025).
# Amino acid sequences for entries named in this document (tags omitted). A change or cut given only in a name is not applied to a line headed by its entry.
# UniProt Q7L1V2: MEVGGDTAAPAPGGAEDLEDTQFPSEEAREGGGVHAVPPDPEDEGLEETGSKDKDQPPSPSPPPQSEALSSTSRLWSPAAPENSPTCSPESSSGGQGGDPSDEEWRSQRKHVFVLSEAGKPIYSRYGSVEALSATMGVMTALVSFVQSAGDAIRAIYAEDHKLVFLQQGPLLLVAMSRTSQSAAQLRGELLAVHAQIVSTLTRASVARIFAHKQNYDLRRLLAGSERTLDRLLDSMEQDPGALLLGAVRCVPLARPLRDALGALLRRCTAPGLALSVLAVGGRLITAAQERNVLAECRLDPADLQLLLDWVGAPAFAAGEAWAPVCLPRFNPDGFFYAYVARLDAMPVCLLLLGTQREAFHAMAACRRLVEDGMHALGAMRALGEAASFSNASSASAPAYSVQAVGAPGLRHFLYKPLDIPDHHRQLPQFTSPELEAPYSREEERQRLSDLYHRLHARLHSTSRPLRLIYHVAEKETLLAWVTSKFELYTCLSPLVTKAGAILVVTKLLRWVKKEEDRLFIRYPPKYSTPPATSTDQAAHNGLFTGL
# UniProt Q86SQ7: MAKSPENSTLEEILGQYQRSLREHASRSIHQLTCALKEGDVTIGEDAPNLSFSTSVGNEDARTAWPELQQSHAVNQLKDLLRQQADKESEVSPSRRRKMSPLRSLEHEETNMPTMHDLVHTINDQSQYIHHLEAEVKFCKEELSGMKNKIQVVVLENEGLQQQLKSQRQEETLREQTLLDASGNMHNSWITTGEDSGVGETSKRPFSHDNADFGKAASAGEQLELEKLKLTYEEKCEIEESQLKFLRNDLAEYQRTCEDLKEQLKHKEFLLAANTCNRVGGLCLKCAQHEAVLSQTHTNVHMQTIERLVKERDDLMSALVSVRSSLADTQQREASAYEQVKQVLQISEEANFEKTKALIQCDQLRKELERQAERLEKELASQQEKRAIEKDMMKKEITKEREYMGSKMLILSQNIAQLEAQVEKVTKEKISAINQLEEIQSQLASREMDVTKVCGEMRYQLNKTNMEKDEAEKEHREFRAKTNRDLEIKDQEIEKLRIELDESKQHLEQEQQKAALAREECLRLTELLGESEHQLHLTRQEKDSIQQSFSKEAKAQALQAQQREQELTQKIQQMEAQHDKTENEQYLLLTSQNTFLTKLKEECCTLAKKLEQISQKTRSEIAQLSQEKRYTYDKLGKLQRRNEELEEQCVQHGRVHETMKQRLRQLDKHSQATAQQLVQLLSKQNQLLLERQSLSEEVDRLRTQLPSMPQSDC
# UniProt Q7Z3K3: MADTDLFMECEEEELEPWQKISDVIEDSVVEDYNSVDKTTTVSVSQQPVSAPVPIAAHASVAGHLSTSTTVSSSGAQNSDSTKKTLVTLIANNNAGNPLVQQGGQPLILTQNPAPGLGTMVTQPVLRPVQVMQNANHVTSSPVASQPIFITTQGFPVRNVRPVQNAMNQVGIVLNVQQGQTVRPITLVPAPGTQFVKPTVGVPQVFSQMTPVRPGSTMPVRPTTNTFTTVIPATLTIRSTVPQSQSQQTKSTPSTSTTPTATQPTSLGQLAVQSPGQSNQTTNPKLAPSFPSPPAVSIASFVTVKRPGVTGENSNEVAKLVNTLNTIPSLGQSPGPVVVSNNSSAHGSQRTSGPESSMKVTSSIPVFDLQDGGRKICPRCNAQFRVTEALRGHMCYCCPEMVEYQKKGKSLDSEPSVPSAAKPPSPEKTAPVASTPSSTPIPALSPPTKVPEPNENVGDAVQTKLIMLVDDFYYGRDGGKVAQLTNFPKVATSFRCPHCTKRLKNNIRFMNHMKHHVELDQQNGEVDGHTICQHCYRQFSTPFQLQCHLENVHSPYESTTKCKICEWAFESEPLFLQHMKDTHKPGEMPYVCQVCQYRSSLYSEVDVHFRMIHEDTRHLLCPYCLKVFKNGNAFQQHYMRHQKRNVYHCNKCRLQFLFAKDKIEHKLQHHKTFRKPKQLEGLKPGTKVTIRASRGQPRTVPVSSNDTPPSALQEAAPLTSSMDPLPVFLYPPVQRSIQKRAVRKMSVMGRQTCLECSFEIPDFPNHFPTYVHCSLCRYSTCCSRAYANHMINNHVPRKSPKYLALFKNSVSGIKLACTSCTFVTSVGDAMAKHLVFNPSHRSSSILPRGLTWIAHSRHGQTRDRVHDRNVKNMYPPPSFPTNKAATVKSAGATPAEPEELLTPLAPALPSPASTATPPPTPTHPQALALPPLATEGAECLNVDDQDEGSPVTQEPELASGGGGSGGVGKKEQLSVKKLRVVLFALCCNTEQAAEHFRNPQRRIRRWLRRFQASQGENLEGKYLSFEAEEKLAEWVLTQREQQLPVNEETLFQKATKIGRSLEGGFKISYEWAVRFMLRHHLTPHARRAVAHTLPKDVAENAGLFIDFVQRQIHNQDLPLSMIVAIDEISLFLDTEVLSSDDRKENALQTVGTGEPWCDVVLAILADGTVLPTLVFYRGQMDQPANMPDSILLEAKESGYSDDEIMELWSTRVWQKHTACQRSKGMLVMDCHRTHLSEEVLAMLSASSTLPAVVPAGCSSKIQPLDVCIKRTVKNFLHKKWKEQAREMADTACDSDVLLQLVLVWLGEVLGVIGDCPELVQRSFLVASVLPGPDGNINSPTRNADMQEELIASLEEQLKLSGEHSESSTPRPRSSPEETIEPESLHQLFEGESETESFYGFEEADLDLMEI
# UniProt Q7RTT5, whole entry: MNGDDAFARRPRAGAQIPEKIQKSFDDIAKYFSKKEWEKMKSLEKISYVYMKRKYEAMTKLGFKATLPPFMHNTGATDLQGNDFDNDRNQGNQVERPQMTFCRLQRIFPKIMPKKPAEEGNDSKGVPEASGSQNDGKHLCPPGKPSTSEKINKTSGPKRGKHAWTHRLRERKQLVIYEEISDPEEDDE
# UniProt Q7Z4G1, whole entry: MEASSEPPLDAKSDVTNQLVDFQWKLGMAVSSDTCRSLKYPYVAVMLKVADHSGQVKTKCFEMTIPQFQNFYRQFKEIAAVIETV
# UniProt Q7L8L6: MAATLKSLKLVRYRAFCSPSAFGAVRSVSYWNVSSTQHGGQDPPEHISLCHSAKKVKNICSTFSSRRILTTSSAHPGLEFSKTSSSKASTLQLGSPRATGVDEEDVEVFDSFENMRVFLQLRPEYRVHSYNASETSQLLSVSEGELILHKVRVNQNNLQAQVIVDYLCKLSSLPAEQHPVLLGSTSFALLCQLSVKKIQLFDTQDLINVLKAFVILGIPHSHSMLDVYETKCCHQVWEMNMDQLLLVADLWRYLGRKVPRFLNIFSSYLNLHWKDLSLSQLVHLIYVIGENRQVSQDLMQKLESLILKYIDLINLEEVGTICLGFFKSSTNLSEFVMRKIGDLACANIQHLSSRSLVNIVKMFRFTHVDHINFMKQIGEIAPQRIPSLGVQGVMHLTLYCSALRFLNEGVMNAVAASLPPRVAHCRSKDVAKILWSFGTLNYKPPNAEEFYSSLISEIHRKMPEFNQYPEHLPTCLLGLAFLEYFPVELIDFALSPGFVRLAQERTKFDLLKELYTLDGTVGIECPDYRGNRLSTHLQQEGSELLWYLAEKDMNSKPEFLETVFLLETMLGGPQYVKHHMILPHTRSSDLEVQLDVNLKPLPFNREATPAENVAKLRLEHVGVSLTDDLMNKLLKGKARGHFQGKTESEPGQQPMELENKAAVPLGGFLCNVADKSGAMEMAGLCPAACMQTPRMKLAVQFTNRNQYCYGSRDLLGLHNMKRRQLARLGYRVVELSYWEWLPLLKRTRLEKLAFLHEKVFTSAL
# UniProt Q86VS8: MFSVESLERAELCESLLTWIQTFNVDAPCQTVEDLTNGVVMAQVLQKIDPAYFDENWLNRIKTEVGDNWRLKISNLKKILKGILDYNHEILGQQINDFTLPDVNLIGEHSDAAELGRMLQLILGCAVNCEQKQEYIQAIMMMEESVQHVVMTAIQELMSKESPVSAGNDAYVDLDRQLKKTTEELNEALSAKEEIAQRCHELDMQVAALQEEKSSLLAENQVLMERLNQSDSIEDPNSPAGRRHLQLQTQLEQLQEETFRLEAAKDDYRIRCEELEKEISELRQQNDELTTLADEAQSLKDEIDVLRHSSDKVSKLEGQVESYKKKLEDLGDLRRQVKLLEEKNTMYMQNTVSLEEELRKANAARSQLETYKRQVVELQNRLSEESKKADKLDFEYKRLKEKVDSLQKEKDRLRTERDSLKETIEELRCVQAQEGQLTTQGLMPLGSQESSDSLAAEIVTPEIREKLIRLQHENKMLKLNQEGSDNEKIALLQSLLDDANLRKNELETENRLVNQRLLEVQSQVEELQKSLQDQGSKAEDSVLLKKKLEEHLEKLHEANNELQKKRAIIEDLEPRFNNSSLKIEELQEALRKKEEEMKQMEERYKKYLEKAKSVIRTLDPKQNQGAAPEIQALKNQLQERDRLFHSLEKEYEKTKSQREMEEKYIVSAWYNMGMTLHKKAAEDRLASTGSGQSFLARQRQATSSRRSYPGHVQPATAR
# UniProt Q7L8S5: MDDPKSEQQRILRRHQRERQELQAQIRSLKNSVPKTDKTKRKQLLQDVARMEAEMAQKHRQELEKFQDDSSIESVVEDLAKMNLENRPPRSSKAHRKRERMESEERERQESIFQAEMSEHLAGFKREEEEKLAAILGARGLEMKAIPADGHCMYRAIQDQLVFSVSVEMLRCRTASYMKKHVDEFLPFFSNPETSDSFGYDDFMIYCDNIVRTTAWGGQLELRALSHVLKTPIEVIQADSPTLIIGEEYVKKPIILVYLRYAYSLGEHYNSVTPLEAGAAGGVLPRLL
# UniProt Q7Z6J4: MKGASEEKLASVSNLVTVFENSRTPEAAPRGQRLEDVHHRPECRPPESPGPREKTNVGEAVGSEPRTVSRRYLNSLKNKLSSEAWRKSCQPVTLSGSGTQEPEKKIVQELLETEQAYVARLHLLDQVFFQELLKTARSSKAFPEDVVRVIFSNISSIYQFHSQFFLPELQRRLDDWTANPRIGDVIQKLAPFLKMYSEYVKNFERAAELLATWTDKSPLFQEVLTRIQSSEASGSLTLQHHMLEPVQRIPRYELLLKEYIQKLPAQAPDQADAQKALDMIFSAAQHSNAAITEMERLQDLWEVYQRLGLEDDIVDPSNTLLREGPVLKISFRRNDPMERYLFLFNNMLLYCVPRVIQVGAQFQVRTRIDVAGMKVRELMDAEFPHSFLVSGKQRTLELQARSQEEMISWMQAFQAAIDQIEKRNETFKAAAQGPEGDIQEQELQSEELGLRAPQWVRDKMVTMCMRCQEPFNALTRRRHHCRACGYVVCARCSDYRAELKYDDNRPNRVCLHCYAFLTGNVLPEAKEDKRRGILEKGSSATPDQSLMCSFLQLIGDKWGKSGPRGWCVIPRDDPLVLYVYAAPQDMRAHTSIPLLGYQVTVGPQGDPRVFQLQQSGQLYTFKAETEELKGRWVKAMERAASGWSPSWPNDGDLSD
# UniProt Q7Z569: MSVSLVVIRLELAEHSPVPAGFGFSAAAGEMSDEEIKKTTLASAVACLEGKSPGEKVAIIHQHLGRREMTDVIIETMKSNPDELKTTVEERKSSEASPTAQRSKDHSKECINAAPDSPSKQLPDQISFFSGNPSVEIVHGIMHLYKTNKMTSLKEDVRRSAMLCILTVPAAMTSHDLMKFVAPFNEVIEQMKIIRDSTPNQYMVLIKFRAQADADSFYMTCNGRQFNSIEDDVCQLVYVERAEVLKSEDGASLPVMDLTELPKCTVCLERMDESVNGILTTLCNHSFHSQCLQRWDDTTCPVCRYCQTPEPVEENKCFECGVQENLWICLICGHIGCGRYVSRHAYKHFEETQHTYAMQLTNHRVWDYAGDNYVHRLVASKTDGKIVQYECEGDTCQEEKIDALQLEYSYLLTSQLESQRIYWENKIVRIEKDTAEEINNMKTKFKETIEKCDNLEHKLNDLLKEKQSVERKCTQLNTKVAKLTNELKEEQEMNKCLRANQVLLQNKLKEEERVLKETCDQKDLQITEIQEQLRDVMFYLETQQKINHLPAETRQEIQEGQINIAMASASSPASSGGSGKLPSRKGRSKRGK
# UniProt Q7L3S4: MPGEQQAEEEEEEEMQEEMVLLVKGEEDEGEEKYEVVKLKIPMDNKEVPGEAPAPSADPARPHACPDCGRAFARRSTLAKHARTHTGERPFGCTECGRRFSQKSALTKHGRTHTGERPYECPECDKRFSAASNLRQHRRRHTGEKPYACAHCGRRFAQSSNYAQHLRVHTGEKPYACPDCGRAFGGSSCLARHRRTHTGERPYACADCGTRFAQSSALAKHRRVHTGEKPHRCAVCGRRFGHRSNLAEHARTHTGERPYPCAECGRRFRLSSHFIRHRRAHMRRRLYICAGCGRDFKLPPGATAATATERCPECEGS
# UniProt Q75LS8: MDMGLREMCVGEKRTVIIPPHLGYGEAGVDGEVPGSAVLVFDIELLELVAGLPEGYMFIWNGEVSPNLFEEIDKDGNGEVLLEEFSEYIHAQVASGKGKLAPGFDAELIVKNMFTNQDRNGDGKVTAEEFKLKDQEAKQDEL
# This is one part of the list. Small differences around the control level are noise.
# Compound: CN[C@@H]1C[C@H]2O[C@@](C)([C@@H]1OC)n1c3ccccc3c3c4c(c5c6ccccc6n2c5c31)C(=O)NC4 [staurosporine]
# Test: log2 fold change of tryptic peptide abundance, ligand vs vehicle (limited proteolysis) (log2 ratio); higher = more trypsin-susceptible (destabilized)
# Conditions: ligand concentration: 20 uM; sample: K562 cleared lysate; digestion: 4 min, 22 C (HT-PELSA RT4min, Orbitrap Astral)
row,Target,log2 fold change
1,"TXNDC2 (peptide sequence: ASVKPSQPK, peptide start residue: 167) (UniProt Q86VQ3)",-0.317
2,"MON1B (peptide sequence: RCTAPGLALSVLAVGGR, peptide start residue: 267) (UniProt Q7L1V2)",-0.244
3,"AKNA (peptide sequence: LGYEAGLSLEGHGNTSPMALGHGQAR, peptide start residue: 144) (UniProt Q7Z591)",-0.515
4,"SDCCAG8 (peptide sequence: LTYEEKCEIEESQLK, peptide start residue: 230) (UniProt Q86SQ7)",-0.438
5,"UniProt Q7Z4H7 (peptide sequence: HVLTSHIDEPPTQNQSDLLNKK, peptide start residue: 669)",0.28
6,"ZNF410 (peptide sequence: VQELAHDSLIAATR, peptide start residue: 168) (UniProt Q86VK4)",-0.175
7,"UniProt Q7Z5L2 (peptide sequence: VLEILYEFPR, peptide start residue: 213)",-0.189
8,"CXXC5 (peptide sequence: SGAVASLLSK, peptide start residue: 138) (UniProt Q7LFL8)",0.146
9,"GALNT5 (peptide sequence: APGQFGRPVVVPHGK, peptide start residue: 437) (UniProt Q7Z7M9)",0.697
10,"POGZ (peptide sequence: YLSFEAEEK, peptide start residue: 1022) (UniProt Q7Z3K3)",-0.341
11,"UniProt Q7RTT5 (peptide sequence: ISYVYMK, peptide start residue: 46)",-0.294
12,"NUP54 (peptide sequence: SQQQQLVESLHK, peptide start residue: 204) (UniProt Q7Z3B4)",0.654
13,"COMMD6 (peptide sequence: LGMAVSSDTCR, peptide start residue: 26) (UniProt Q7Z4G1)",0.0216
14,"CENPV (peptide sequence: CGVQSFYTPR, peptide start residue: 219) (UniProt Q7Z7K6)",0.304
15,"FASTKD5 (peptide sequence: QIGEIAPQR, peptide start residue: 376) (UniProt Q7L8L6)",0.431
16,"HOOK3 (peptide sequence: KKEEEMK, peptide start residue: 592) (UniProt Q86VS8)",0.392
17,"NT5DC3 (peptide sequence: TGAIIPELR, peptide start residue: 406) (UniProt Q86UY8)",0.244
18,"UniProt Q6ZNW5 (peptide sequence: AGIEAVLLSLHPGFR, peptide start residue: 188)",0.188
19,"UniProt Q7L8S5 (peptide sequence: RERMESEER, peptide start residue: 98)",-0.0615
20,"UniProt Q7Z6J4 (peptide sequence: RYLNSLKNK, peptide start residue: 71)",0.0671
21,"NOL8 (peptide sequence: NSSPGEASLLEK, peptide start residue: 1097) (UniProt Q76FK4)",-0.196
22,"BRAP (peptide sequence: FVAPFNEVIEQMK, peptide start residue: 180) (UniProt Q7Z569)",-0.768
23,"RBBP6 (peptide sequence: KTDYDTR, peptide start residue: 1474) (UniProt Q7Z6E9)",-0.849
24,"AEBP2 (peptide sequence: HVPTHFSQQNSSK, peptide start residue: 348) (UniProt Q6ZN18)",-0.818
25,"ZNF771 (peptide sequence: THTGERPYPCAECGR, peptide start residue: 252) (UniProt Q7L3S4)",-0.277
26,"UniProt Q75LS8 (peptide sequence: LAPGFDAELIVK, peptide start residue: 528)",-0.196

# Reprinted, entries 12–13
row,Target,log2 fold change
12,"NUP54 (peptide sequence: SQQQQLVESLHK, peptide start residue: 204) (UniProt Q7Z3B4)",0.654
13,"COMMD6 (peptide sequence: LGMAVSSDTCR, peptide start residue: 26) (UniProt Q7Z4G1)",0.0216
